Results deposited as PubChem BioAssay AID1159578 (Peter MacCallum Cancer Centre, 2015).
Here is one part, drawn at random, of about 18,000 reagents tested. Of all reagents, about 1,030 (5.7%) are marked active. 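Inactive calls also include pools with fewer than 3300 nuclei, whose migration was not assessed.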 Raw values are not corrected between plates.

Assay: 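siRNA pools altering how lymphatic endothelial cells close a scratch wound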 (primary screen)
System: human lymphatic endothelial cells
Reagent: siRNA pool against human genes, 40 nM
Time to read-out: 48 h after transfection
Detection: 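High-content imaging of dye-stained cells in a scratch assay measures filled wound area and nuclei per well; duplicate means given as ratio to mock and robust z-score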
Direction: migration robust z-score: higher = faster migration into the scratch; migration relative to mock: higher = more scratch area covered than mock; nuclei per well: higher = more cells in the well
Hit rule: 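Migration changed when robust z exceeds 2 or falls below -2 and mean nuclei number is at least 3300; otherwise not called changed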
Meaning of the calls: active = migration changed; inactive = no migration change, or too few cells

gene	migration robust z-score	migration class with cell-count check	migration relative to mock	nuclei per well, duplicate mean	outcome
FOXO1	-0.31	migration z between -2 and 2; enough cells	0.74	6816	inactive
UNC13A	0.26	migration z between -2 and 2; enough cells	0.96	4846	inactive
USP34	0.68	migration z between -2 and 2; enough cells	0.94	5390	inactive
GNG7	-0.43	migration z between -2 and 2; enough cells	0.77	6096	inactive
CLC	-0.08	migration z between -2 and 2; enough cells	0.79	5500	inactive
PRPSAP1	0.05	migration z between -2 and 2; enough cells	0.9	5821	inactive
GDF5	-0.22	migration z between -2 and 2; enough cells	0.82	5897	inactive
CELA3B	-0.16	migration z between -2 and 2; enough cells	0.84	5356	inactive
HGFAC	-1.19	migration z between -2 and 2; enough cells	0.57	3992	inactive
AQR	-1.7	migration z between -2 and 2; enough cells	0.44	3763	inactive
FARSA	-1.61	migration z between -2 and 2; enough cells	0.5	6746	inactive
SNX8	-2.29	migration z below -2; enough cells	0.29	5546	active
PPME1	-2.21	migration z below -2; enough cells	0.38	4132	active
KRT74	-0.08	migration z between -2 and 2; enough cells	0.86	5948	inactive
STIM1	-0.79	migration z between -2 and 2; enough cells	0.68	5750	inactive
CLCA3P	1.04	migration z between -2 and 2; enough cells	1	6192	inactive
NME8	0.62	migration z between -2 and 2; enough cells	0.92	6150	inactive
OPTC	-2.09	under 3300 nuclei; migration not judged	0.34	2723	inactive
SLC45A1	1.21	migration z between -2 and 2; enough cells	1.2	5708	inactive
ZMYM1	0.23	migration z between -2 and 2; enough cells	0.94	6274	inactive
CYP2U1	1.09	migration z between -2 and 2; enough cells	1.02	5776	inactive
ACTA1	0.73	migration z between -2 and 2; enough cells	1.07	6197	inactive
HOXA3	0.96	migration z between -2 and 2; enough cells	1.14	6506	inactive
USP10	0.67	migration z between -2 and 2; enough cells	0.94	5360	inactive
IDH1	1.09	migration z between -2 and 2; enough cells	1.02	5380	inactive
AGBL3	-0.02	migration z between -2 and 2; enough cells	0.88	6094	inactive
CARS1	-0.16	migration z between -2 and 2; enough cells	0.77	3410	inactive
KLRK1	-1.21	migration z between -2 and 2; enough cells	0.56	5440	inactive
LIN52	1.19	migration z between -2 and 2; enough cells	1.19	4146	inactive
TRMT44	1.4	migration z between -2 and 2; enough cells	1.25	5626	inactive
LEFTY1	-0.04	migration z between -2 and 2; enough cells	0.88	6483	inactive
DYNC2I2	-1.06	migration z between -2 and 2; enough cells	0.6	5364	inactive
SCN4A	-1.32	migration z between -2 and 2; enough cells	0.55	4334	inactive
CLDN14	1.01	migration z between -2 and 2; enough cells	1.15	5498	inactive
RTBDN	-0.08	migration z between -2 and 2; enough cells	0.86	5287	inactive
PLAAT3	0.26	migration z between -2 and 2; enough cells	0.96	5482	inactive
C9orf85	-0.37	migration z between -2 and 2; enough cells	0.79	4725	inactive
CD320	2.01	migration z above 2; enough cells	1.41	7690	active
AMY1B	-0.64	migration z between -2 and 2; enough cells	0.72	5541	inactive
FZD1	0.34	migration z between -2 and 2; enough cells	0.87	5138	inactive
LHX6	0.68	migration z between -2 and 2; enough cells	0.94	4816	inactive
UQCRFS1	0.8	migration z between -2 and 2; enough cells	0.96	7106	inactive

Records listed so far whose gene name begins with C or c:
gene	migration robust z-score	migration class with cell-count check	migration relative to mock	nuclei per well, duplicate mean	outcome
CLC	-0.08	migration z between -2 and 2; enough cells	0.79	5500	inactive
CELA3B	-0.16	migration z between -2 and 2; enough cells	0.84	5356	inactive
CLCA3P	1.04	migration z between -2 and 2; enough cells	1	6192	inactive
CYP2U1	1.09	migration z between -2 and 2; enough cells	1.02	5776	inactive
CARS1	-0.16	migration z between -2 and 2; enough cells	0.77	3410	inactive
CLDN14	1.01	migration z between -2 and 2; enough cells	1.15	5498	inactive
C9orf85	-0.37	migration z between -2 and 2; enough cells	0.79	4725	inactive
CD320	2.01	migration z above 2; enough cells	1.41	7690	active

Continued.
gene	migration robust z-score	migration class with cell-count check	migration relative to mock	nuclei per well, duplicate mean	outcome
GDPD4	-1.93	migration z between -2 and 2; enough cells	0.38	3425	inactive
PDE4B	1.68	migration z between -2 and 2; enough cells	1.13	6136	inactive
SPINK5	-1.25	migration z between -2 and 2; enough cells	0.56	4370	inactive
RBM24	-2.59	migration z below -2; enough cells	0.21	5170	active
RUSC2	-1.75	under 3300 nuclei; migration not judged	0.43	3205	inactive
NDUFA12	-1.79	migration z between -2 and 2; enough cells	0.46	4214	inactive
STUM	-3.81	under 3300 nuclei; migration not judged	-0.08	2722	inactive
PIM1	-0.03	migration z between -2 and 2; enough cells	0.8	4580	inactive
ZNF350	-1.09	migration z between -2 and 2; enough cells	0.6	5228	inactive
BPIFB1	1.13	migration z between -2 and 2; enough cells	1.18	5799	inactive
GSK3A	-0.7	migration z between -2 and 2; enough cells	0.67	5564	inactive
COMMD7	-0.32	migration z between -2 and 2; enough cells	0.8	4666	inactive
GMCL1	-1.23	under 3300 nuclei; migration not judged	0.57	2620	inactive
IMP4	-0.41	migration z between -2 and 2; enough cells	0.78	5527	inactive
ADAMTS17	-1.9	migration z between -2 and 2; enough cells	0.44	6045	inactive
SNRPF	-0.56	migration z between -2 and 2; enough cells	0.74	5082	inactive
LINC02145	0.02	migration z between -2 and 2; enough cells	0.89	5190	inactive
SLC25A29	-1.95	migration z between -2 and 2; enough cells	0.43	4652	inactive
CELF3	-0.08	migration z between -2 and 2; enough cells	0.86	4884	inactive
TMA16	1.2	migration z between -2 and 2; enough cells	1.19	5816	inactive
RIPOR3	-0.24	migration z between -2 and 2; enough cells	0.82	6312	inactive
ATG2B	-0.82	migration z between -2 and 2; enough cells	0.67	5322	inactive
KIR3DX1	1.88	migration z between -2 and 2; enough cells	1.38	7002	inactive
LONRF2	-1.98	migration z between -2 and 2; enough cells	0.43	5555	inactive
ATP2C2	-0.5	migration z between -2 and 2; enough cells	0.75	6914	inactive
MAP7D2	0.31	migration z between -2 and 2; enough cells	0.96	6044	inactive
OR51M1	0.46	migration z between -2 and 2; enough cells	1	5804	inactive
LONRF3	1.04	migration z between -2 and 2; enough cells	1	6950	inactive
RRP9	-0.43	migration z between -2 and 2; enough cells	0.77	5366	inactive
SPMIP3	-0.68	migration z between -2 and 2; enough cells	0.7	4476	inactive
CBLN4	-0.89	migration z between -2 and 2; enough cells	0.66	4210	inactive
